The results in this text go back to PubChem BioAssay AID1347426 (Functional Genomics Laboratory (NCATS/FGL), 2020).

The campaign covered roughly 31,000 sequences. About 1,400 (4.5%) were called active.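 The calls were made as follows: active = median seed-adjusted z-score above 1 or below -1; inactive = the rest.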 This is one part of the list.

A short description of the assay: Novel Modifiers of Survival Motor Neuron (SMN) Protein: Gene Identification via Genome-wide siRNA Screen.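 Also: luminescence tracks full-length SMN protein made from the SMN2 reporter.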 The following applies: HEK293T SMN2-luciferase reporter, siRNA knockdown, 72 h; actives lie on both sides. The procedure, abridged:
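Genome-wide siRNA screen (10418 genes, 3 siRNAs each, 1 pmol per well) by reverse transfection in HEK293T cells stably carrying an SMN2-luciferase reporter; luminescence after 72 hours, normalized to negative-control siRNA, log10-transformed, MAD-scored.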
On the technique in general: A reporter such as luciferase makes a cellular process visible.
For the sequence GGAUACAUUAAGCUAAUAATT against PRMT3, the median seed-adjusted z-score is inactive: 0.00875.

GAUUACGGCUUUACCGAAATT against ZIC4: the median seed-adjusted z-score is inactive: 0.512.

As to GCCUAUGACCCAAAUUAUATT against PPTC7, the median seed-adjusted z-score is inactive: 0.49.

Consider CCGUGGGUCUCUAACUUCATT against SEMA5B, for which the median seed-adjusted z-score is inactive: 0.641.

Regarding CAAUCUUCGUGUUCACUUUTT against RPL17, the median seed-adjusted z-score is inactive: -0.13.

For GGAUGACUACAUCAUUAGATT against OFD1, the median seed-adjusted z-score is inactive: 0.

In the case of CGGUGAAAGCGAAUUCCUATT against CD40, the median seed-adjusted z-score is inactive: 0.275.

For the sequence GGCUUUGCGCUGCAAAUCCTT against LYPD1, the median seed-adjusted z-score is inactive: -0.0713.

Consider GGAGGACAGUGCUUCAAGATT against FGD5, for which the median seed-adjusted z-score is inactive: -0.0561.

Turning to GGAUAUGGGUGGGAGCGAATT against NFKBIL1, the median seed-adjusted z-score is inactive: 0.282.

Turning to CCUGAAUCGUGUGCACUUATT against SSBP1, the median seed-adjusted z-score is inactive: -0.456.

Regarding GGAAGGAGCUGUCACGCAATT against MED26, the median seed-adjusted z-score is active: -1.86.

Regarding CGAUUUUAUCUGUCAGAAUTT against FBLN1, the median seed-adjusted z-score is inactive: 0.518.

For the sequence GGUUCAGCUUUGGGUCAAATT against NUP214, the median seed-adjusted z-score was inactive: 0.074.

GUCCUGAAGUCACUCCGAUTT against FUT10: the median seed-adjusted z-score was inactive: -0.629.

Consider UUUUUGAUGUGGACUCAAATT against USP18, for which the median seed-adjusted z-score was inactive: -0.326.

For the sequence AAGACUCGAGAGUACAAAATT against SLC25A11, the median seed-adjusted z-score is inactive: -0.731.

As to CAACAACCGCUGGAGCUUATT against STAT2, the median seed-adjusted z-score was inactive: 0.

Take GCAUCGUUGAGAAUCCACATT against GMPPA: the median seed-adjusted z-score is inactive: 0.619.

Turning to UGACCAUGCUGAUAAACUGTT against IFNA1, the median seed-adjusted z-score was inactive: -0.625.

On to CCUCACGUGUGGGACCUUUTT against LIMK1, for which the median seed-adjusted z-score is inactive: -0.428.

For AGUUUGUCGUGGUUAUAAATT against DYNLL1, the median seed-adjusted z-score is inactive: 0.

On to GCUAAGAAAAGGUACUGAUTT against GBP2, for which the median seed-adjusted z-score is inactive: -0.263.

On to GCCGACGAAUGUUAAUGAATT against FAM98B, for which the median seed-adjusted z-score is inactive: -0.0162.

As to GCAUGGAUCUGAUCCGUUUTT against TAOK3, the median seed-adjusted z-score was inactive: -0.594.

For GGAUCGAUCCAGCUUACAATT against ACACB, the median seed-adjusted z-score was inactive: 0.31.

On to AGGUUUAUGUGACCAAGCATT against KCTD8, for which the median seed-adjusted z-score was inactive: 0.0212.

Consider CAGAGGAUUUGGAAUCGUUTT against CYP2C19, for which the median seed-adjusted z-score was inactive: -0.0674.

As for CUGUUUAACUGUGAGAUCATT against ANP32E, the median seed-adjusted z-score is inactive: -0.0648.

In the case of CGACUUCUAGAUGCAGUUATT against GMDS, the median seed-adjusted z-score is inactive: 0.

Regarding CUGAGAUACUGCAAGCUGATT against IL5RA, the median seed-adjusted z-score was inactive: -0.357.

Consider UCUCUACAACAAAAUUUAATT against POLR2L, for which the median seed-adjusted z-score was active: -1.19.

Regarding CAGAACACCUGAACUCAAATT against ZDHHC9, the median seed-adjusted z-score is inactive: -0.495.

On to ACAUCUACGUGCUCAACCATT against B4GALT7, for which the median seed-adjusted z-score is inactive: -0.00294.

As to GGAUCCAUCUUAUCAGGCATT against FMO4, the median seed-adjusted z-score was inactive: -0.359.

In the case of AGACAUAUGCUUUUCCAUUTT against HTR3B, the median seed-adjusted z-score is inactive: 0.153.

For CUACCAUGCUUGCUAUACATT against ERCC4, the median seed-adjusted z-score was inactive: -0.00878.

Consider GCAUAGUACGAAAUUGGGATT against ACTR2, for which the median seed-adjusted z-score is inactive: 0.548.

For the sequence CCCUCAAUUUGGUCUGUUUTT against SPINK2, the median seed-adjusted z-score is inactive: -0.431.

With CUAUAUUCGUGUUCUUGUUTT against SEMA6C, the median seed-adjusted z-score was inactive: 0.321.

Regarding CAGUGGGAGCAGUUAAAUATT against SERPIND1, the median seed-adjusted z-score was inactive: 0.133.

With GCAUUUAUCAUAGAGAGAATT against ZNF254, the median seed-adjusted z-score is inactive: 0.088.

As to GAGUGGACAUUCUAAUCAATT against RDH13, the median seed-adjusted z-score is inactive: 0.208.

For GGAUAUUUACCAAAGGAGATT against NXF3, the median seed-adjusted z-score is inactive: 0.672.

In the case of GGAUAUCCAGUGAUCGUUATT against IL12RB1, the median seed-adjusted z-score was inactive: -0.126.

AAACAUUCCCUGAUAAGUATT against GPR176: the median seed-adjusted z-score is inactive: 0.0782.

As for GGCUUACGGUUAUUCCAGATT against DGKD, the median seed-adjusted z-score is inactive: 0.35.

ACCAGGUGCUCUCCAAUAATT against PADI3: the median seed-adjusted z-score is inactive: 0.147.

As for GGAUAUGAGUUACAUGACATT against GALNT5, the median seed-adjusted z-score is inactive: -0.279.

Turning to GAGUUUGCCUUGUUAAUCUTT against REG1A, the median seed-adjusted z-score was inactive: 0.596.

As to GGAUCUGAUUCAUUGCUCATT against CNOT7, the median seed-adjusted z-score was inactive: 0.716.

As to CAUCUUCACGCUGACCGUCTT against UTS2R, the median seed-adjusted z-score is inactive: 0.0819.

Take CUAGCACGCUGCUCACUGATT against NAGS: the median seed-adjusted z-score is inactive: 0.0484.

As to GGAAACCGCAAGAACCUAATT against THAP3, the median seed-adjusted z-score is inactive: 0.269.

Consider GGAUCCCUUUUGCAAGAUATT against EIF2AK4, for which the median seed-adjusted z-score is inactive: -0.188.

Regarding GAUUGCGUCUGGAGACUUATT against RNF148, the median seed-adjusted z-score was inactive: 0.552.

As for UCAACAUCCUCAAAGGGUATT against GGT1, the median seed-adjusted z-score is inactive: -0.0421.

In the case of CCUUUGACCAGAUCCAUGATT against STX17, the median seed-adjusted z-score was inactive: 0.00965.

For the sequence CUCACCUACUGGAACCUGATT against ZBED4, the median seed-adjusted z-score was inactive: -0.553.

For GACUCAGAACGACAACCAATT against KIF4B, the median seed-adjusted z-score is inactive: -0.0753.

As for AGCGGUCAAGAAUCCAGAATT against ZNF673, the median seed-adjusted z-score is inactive: 0.419.

In the case of CGACUCUUCACGUCAUUUATT against FA2H, the median seed-adjusted z-score is inactive: 0.0497.

As for GCAUCAAAGUGCGGAUACATT against RAB15, the median seed-adjusted z-score is inactive: -0.616.

In the case of GGAGUCAGGUGAUAAUGGATT against TGFBR3, the median seed-adjusted z-score is inactive: 0.285.

Regarding GAGAUGCUGUGAGUAGGUATT against TTC9C, the median seed-adjusted z-score was inactive: -0.571.

Turning to CGGCCUUACUUUUUCAUCUTT against TRIM58, the median seed-adjusted z-score was inactive: -0.582.

In the case of GCCUAUCACAGAUGAACAATT against ADSL, the median seed-adjusted z-score is inactive: 0.

In the case of GCAUCUUUACAGACCAGUUTT against BCL6, the median seed-adjusted z-score is inactive: -0.352.

Take CCAUAAGACCCAAAACAGATT against SKI: the median seed-adjusted z-score is inactive: -0.139.

As to GGUUCACGUUUACAGAGCATT against B3GAT1, the median seed-adjusted z-score is inactive: 0.503.

In the case of ACAUAGAAAAUGCCUGCUATT against CDA, the median seed-adjusted z-score was inactive: 0.471.

Regarding GCUCAUCAACAAGGAGAAATT against SIRT2, the median seed-adjusted z-score is inactive: 0.727.

As to GAAUAAGUAUCGGACUCUATT against BTN3A1, the median seed-adjusted z-score was inactive: -0.198.

CCCUGAGGCUUGUUACAUUTT against PBK: the median seed-adjusted z-score was inactive: -0.311.

As to GGCCGAGUCUAAAGACCAATT against ALDH8A1, the median seed-adjusted z-score was inactive: 0.0628.

Regarding GCUCGUAUCUUACUUAGGATT against VCL, the median seed-adjusted z-score is inactive: 0.

As for CCAAUCUCAUAGAACUUGATT against ARRB1, the median seed-adjusted z-score was inactive: -0.205.

With GAAGCAGGUCGAGCACAUATT against PRKACG, the median seed-adjusted z-score is inactive: 0.

CAUCGGUGCCCAGAAGUCATT against SSBP4: the median seed-adjusted z-score is inactive: 0.254.

Regarding GCAAUGUCCGGAUCUCUGATT against GRK1, the median seed-adjusted z-score is inactive: 0.0807.

As for CAUCCACUCUGGUGACAAATT against ZNF513, the median seed-adjusted z-score is inactive: -0.0616.

As to CACACAUCAUGUUAGUCCUTT against GTF2H2, the median seed-adjusted z-score is inactive: -0.00624.

For UGUCUUCUCGGACAAAGUATT against CLDN10, the median seed-adjusted z-score is inactive: 0.0399.

As to CAAUUUGCCCUAUCUUACATT against HSPA9, the median seed-adjusted z-score was inactive: 0.622.

On to GCUCAUCUCUUACUUACCATT against ZFP37, for which the median seed-adjusted z-score was inactive: -0.305.

For CGACAUUGCCCUGCUCAAATT against ELA2B, the median seed-adjusted z-score is inactive: -0.154.

Take ACCUGCGGGUGUUAUCAAATT against SLC25A38: the median seed-adjusted z-score is inactive: 0.

On to GGGAAGAACUGGAUGUUCATT against CHERP, for which the median seed-adjusted z-score is inactive: 0.155.

On to GCAUCUUCGACACCAACUATT against CPN2, for which the median seed-adjusted z-score was inactive: 0.0491.

In the case of CCUUUUAGGAGGUAGUGUATT against OCLN, the median seed-adjusted z-score was inactive: 0.232.

As for GGCUGAGGAUAAUAGAGUUTT against GLYATL1, the median seed-adjusted z-score is inactive: 0.0148.

On to GGAGAAUCUUUUAGCUGAATT against TUSC3, for which the median seed-adjusted z-score is inactive: 0.138.

For the sequence GGGUCGUUACGUUAGGAUUTT against TRIM23, the median seed-adjusted z-score is inactive: -0.318.

Turning to GGGCAGAACUCUUUGAGAATT against POLL, the median seed-adjusted z-score was inactive: -0.334.

GGAUGACGGUGUCUACUCATT against CLCA1: the median seed-adjusted z-score is inactive: 0.015.

Regarding UCAAGGCCCUGUGCGCUAATT against PPP4C, the median seed-adjusted z-score is active: 1.15.

Take GGAGAGCAUUCAAACAGUUTT against IL24: the median seed-adjusted z-score was inactive: -0.125.

Consider CGUGUUUAUAAUUACCGAATT against MED14, for which the median seed-adjusted z-score is active: -3.22.

Regarding GGUGAACGACGUGACCUCUTT against CDX4, the median seed-adjusted z-score was inactive: 0.181.

Take CCCAGAUUUUAGUACAGUUTT against PEX3: the median seed-adjusted z-score is inactive: 0.142.

In the case of GAUUAUCACAACUAUCAAATT against NUFIP1, the median seed-adjusted z-score is inactive: -0.673.

As to GGUCCAGUGUGGUUCUCUATT against HMX3, the median seed-adjusted z-score was inactive: 0.238.

As for ACCUAAUUGAUUUCCGGGATT against GGT7, the median seed-adjusted z-score was inactive: 0.135.

In the case of CCUCGGCAGUGAAACCACATT against SERPINA13, the median seed-adjusted z-score is inactive: -0.403.

On to AGCUCAUGGCCUACUGGUATT against ADRA2C, for which the median seed-adjusted z-score is inactive: 0.

As for CCACAAAUGUAGUAGAACATT against DYNLT1, the median seed-adjusted z-score was inactive: 0.764.

For CGGUCGGUCCUUUACAACATT against ZNF143, the median seed-adjusted z-score was inactive: -0.357.
